Experimental data published in patent publication US3985740A, “7-[D-(α-amino-α-phenyl-, 2-thienyl- and 3-thienylacetamido)]-3-(5-methylthiazol-2-yl)carbonylthiomethyl-3-cephem -4-carboxylic acids” (Bristol-Myers Company, priority 1974, dated 1976).

Test: Blood levels in the mouse after oral administration
Format: in vivo
Conditions: 100 mg/kg, 100 mgm./kg., read-out: Blood Level
Experimental: Blood levels in the mouse after oral administration were
determined with the following results:
Blood Level in mcg./ml.
Hrs. after adminis- tration.

`CC1=C(C(=O)O)N2C(=O)[C@@H](NC(=O)[C@H](N)c3ccccc3)[C@H]2SC1` [cephalexin, reference compound] gave a concentration at 0.5 h (0.5 hrs. after administration) of 44.6 µg/mL, a concentration at 1 h (1 hr. after administration) of 23.4 µg/mL and a concentration at 2 h (2 hrs. after administration) of 6.1 µg/mL. For the same compound, the concentration at 3.5 h (3.5 hrs. after administration) was 1.7 µg/mL.
